Assay: Body weight and blood glucose monitoring, type 2 diabetes model
Assay type: in vivo, mouse
Settings: type 2 diabetes groups, prior to and after infusion

SMILES: C[C@H](Cc1ccc2c(c1)OC(C(=O)[O-])(C(=O)[O-])O2)NC[C@H](O)c1cccc(Cl)c1.[Na+].[Na+] [CL 316,243]
- non-fasted blood glucose levels: similar

From patent publication US20240148701A1, “WOULD HEALING METHODS” (The University of Sydney, priority 2021, published 2024)
